Test results as given in patent US7785577B2, “Peptides or peptidic conjugate derivatives of MSH and the use thereof for cosmetically fighting against canities” (Institut Europeen de Biologie Cellulaiare, priority 2004, dated 2010).
Not every detail of the peptide structures is certain; ends, links or a residue may be inferred. At least one structure is not confirmed: it was looked up by name or label, or the drawing left a doubt. Non-standard residues stand in square brackets, D forms with d. Residues, ends and D or L forms follow the SMILES beside them. *: point of attachment. Nle = CCCC[C@H](N)C(=O)O; Propionyl = CCC(=O)*

Amino acid sequences for entries named in this document (tags omitted). A change or cut given only in a name is not applied to a line headed by its entry.
UniProt Q01726: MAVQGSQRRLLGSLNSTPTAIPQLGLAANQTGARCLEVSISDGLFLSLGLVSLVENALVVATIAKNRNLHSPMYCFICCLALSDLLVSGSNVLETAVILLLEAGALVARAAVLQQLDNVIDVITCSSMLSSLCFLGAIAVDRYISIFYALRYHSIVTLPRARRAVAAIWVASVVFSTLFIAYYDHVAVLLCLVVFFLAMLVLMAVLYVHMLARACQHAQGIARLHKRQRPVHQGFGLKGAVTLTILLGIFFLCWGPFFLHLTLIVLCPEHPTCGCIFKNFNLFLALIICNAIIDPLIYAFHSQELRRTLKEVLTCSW

Target: T1, melanocortin-1 receptor MClr (Homo sapiens, UniProt Q01726)
T1 construct: The cells used to test MClr were human melanocytes; endogenous in cells; host or cells: human melanocytes
Experiment: Melanogenesis stimulation test: quantification of second messenger cAMP
Assay type: cell-based
Settings: human melanocytes; ligand concentration giving 50% of maximum cAMP stimulation; peptides tested at 10^-6 to 10^-11 M; mean of 3 tests
From the text: Test: Study of the quantification of a second messenger: cAMP
When an agonist binds to this receptor, it leads to activation of a molecule, adenylate cyclase, which produces cAMP. Quantifying cAMP makes it possible to evaluate the affinity of a ligand for its receptor.
Protocol: The cells used to test MClr were human melanocytes.
EC50 is the ligand concentration giving 50% of maximum stimulation.

| Compound | EC50 [nM] |
| --- | --- |
| CCCC[C@H](NC(=O)CC)C(=O)N[C@@H](C)C(=O)N[C@@H](Cc1c[nH]cn1)C(=O)N[C@H](Cc1ccccc1)C(=O)N[C@@H](CCCNC(=N)N)C(=O)N[C@@H](Cc1c[nH]c2ccccc12)C(N)=O [Conjugate no. 8, Prop-Nle-Ala-His-DPhe-Arg-Trp-NH2] (Propionyl-[Nle]AH[dF]RW-NH2) | 1 |
| CCCC[C@H](NC(C)=O)C(=O)N[C@@H](C)C(=O)N[C@@H](Cc1c[nH]cn1)C(=O)N[C@H](Cc1ccccc1)C(=O)N[C@@H](CCCNC(=N)N)C(=O)N[C@@H](Cc1c[nH]c2ccccc12)C(N)=O [Prior art peptide, Ac-Nle-Ala-His-DPhe-Arg-Trp-NH2, reference compound] (Ac-[Nle]AH[dF]RW-NH2) | 1.8 |
